According to PubChem BioAssay AID200 (DTP/NCI, 2004):
The list does not hold the whole screen: it gathers tests that were run many times, whatever their T/C, doses with no T/C, and many T/C values between a quarter and a half above the control. Further doses and runs are listed elsewhere. T/C gives the treated animals as a percentage of the vehicle group. Some doses have a count of surviving animals in place of a T/C: the source files T/C as zero there, which appears to mark a toxic dose or a test without result, not a measured value. Some doses without a T/C left all or most animals alive at the check, yet need not have been tolerated: the source hardly ever lists a survival T/C far under the control, and the zero likely stands for such cases as well. Counts of survivors are from the toxicity check (mostly the fifth day) where no day follows; animals may have died later. Schedules are NCI's codes, read here as Q, the interval in days (D) or hours (H), X, the number of doses. Signs of the kind (2×) stand for listed records that agree. Some doses were run more than once; their values stand side by side, smallest first. For survival time, the PubChem record calls one and a half times the control and up active, and a quarter to a half above the control has no call in these data; cut-offs in other NCI protocols can differ. Some T/C values carry the count of animals alive at the toxicity check (mostly the fifth day); without a count, all were alive then.

Tested on: B6C3F1 mice, B16 melanoma ip, median survival T/C
Assay: NCI In Vivo Anticancer Drug Screen. Data for tumor model B16 Melanoma (intraperitoneal) in B6C3F1 mice
Details: T/C endpoint: median survival time, higher T/C = longer survival
Outline: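 Antitumor effect was judged in mice with transplanted tumors by dividing the treated group's survival measure by that of vehicle controls.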

[1] = dose: 400.0 mg/kg/injection, schedule: Q01DX009 (ip), vehicle: saline with Tween-80
[2] = dose: 50.0 mg/kg/injection, schedule: Q01DX009 (ip), vehicle: saline with Tween-80
[3] = dose: 100.0 mg/kg/injection, schedule: Q01DX009 (ip), vehicle: saline with Tween-80
[4] = dose: 200.0 mg/kg/injection, schedule: Q01DX009 (ip), vehicle: saline with Tween-80
[5] = dose: 12.5 mg/kg/injection, schedule: Q01DX009 (ip), vehicle: saline

With CO[C@@]12[C@H](COC(N)=O)C3=C(C(=O)C(C)=C(N)C3=O)N1C[C@@H]1N[C@@H]12 the T/C (dose: 0.25 mg/kg/injection, schedule: Q01DX009 (ip), vehicle: saline with Tween-80) was 130 % of control, the T/C (dose: 0.25 mg/kg/injection, schedule: Q01DX009 (ip), vehicle: saline) was 141 % of control and the T/C (dose: 0.25 mg/kg/injection, schedule: Q01DX009 (ip), vehicle: water) was 136 % of control. For the same compound, the T/C (dose: 0.5 mg/kg/injection, schedule: Q01DX009 (ip), vehicle: saline) was 130 % of control, the T/C (dose: 0.5 mg/kg/injection, schedule: Q01DX009 (ip), vehicle: water) was 139 % of control and the T/C (dose: 0.5 mg/kg/injection, schedule: Q04DX003 (ip), vehicle: clinical formulation, evaluated on day 45) was 149 % of control. The T/C (dose: 0.5 mg/kg/injection, schedule: Q04DX003 (ip), vehicle: clinical formulation, evaluated on day 60) was 126 % of control, the T/C (dose: 1.0 mg/kg/injection, schedule: Q01DX001 (ip), vehicle: clinical formulation) was 136 % of control and the survivor count (dose: 1.0 mg/kg/injection, schedule: Q01DX005 (iv), vehicle: saline) was 10 of 10. For the same compound, the T/C (dose: 1.0 mg/kg/injection, schedule: Q01DX009 (ip), vehicle: saline) was 139 % of control, the T/C (dose: 1.5 mg/kg/injection, schedule: Q04DX003 (ip), vehicle: clinical formulation) was 139 % of control and the T/C (dose: 2.0 mg/kg/injection, schedule: Q01DX001 (ip), vehicle: saline) was 135 % of control. For the same compound, the survivor count (dose: 2.0 mg/kg/injection, schedule: Q01DX005 (iv), vehicle: saline) was 10 of 10, the T/C (dose: 2.0 mg/kg/injection, schedule: Q01DX009 (ip), vehicle: Klucel (hydroxypropylcellulose) (HPC)) was 142 % of control and the survivor count (dose: 2.0 mg/kg/injection, schedule: Q01DX009 (ip), vehicle: saline with Tween-80) was 10 of 10. For the same compound, the survivor count (dose: 2.0 mg/kg/injection, schedule: Q01DX009 (ip), vehicle: saline) was 10 of 10, the survivor count (dose: 2.0 mg/kg/injection, schedule: Q01DX009 (ip), vehicle: water) was 10 of 10 and the survivor count (dose: 4.0 mg/kg/injection, schedule: Q01DX009 (ip), vehicle: saline with Tween-80) was 10 of 10. For the same compound, the survivor count (dose: 4.0 mg/kg/injection, schedule: Q01DX009 (ip), vehicle: saline) was 10 of 10, the survivor count (dose: 4.0 mg/kg/injection, schedule: Q04DX003 (ip), vehicle: clinical formulation) was 10 of 10 and the survivor count (dose: 5.0 mg/kg/injection, schedule: Q01DX009 (oral), vehicle: water) was 10 of 10. The survivor count (dose: 6.0 mg/kg/injection, schedule: Q04DX003 (ip), vehicle: clinical formulation) was 10 of 10, the T/C (dose: 8.0 mg/kg/injection, schedule: Q01DX001 (iv), vehicle: saline) was 131 % of control and the survivor count (dose: 8.0 mg/kg/injection, schedule: Q04DX003 (ip), vehicle: clinical formulation) was 10 of 10 (2×). For the same compound, the survivor count (dose: 10.0 mg/kg/injection, schedule: Q01DX009 (oral), vehicle: water) was 10 of 10, the survivor count (dose: 12.0 mg/kg/injection, schedule: Q04DX003 (ip), vehicle: clinical formulation) was 10 of 10 and the survivor count (dose: 20.0 mg/kg/injection, schedule: Q01DX009 (oral), vehicle: water) was 10 of 10.
With CN=C(N)N/N=C(\C)c1ccc2c(c1)Cc1cc(/C(C)=N/NC(N)=NC)ccc1-2 the survivor count (dose: 3.0 mg/kg/injection, schedule: Q01DX009 (ip), vehicle: saline with Tween-80) was 10 of 10, the survivor count (dose: 6.0 mg/kg/injection, schedule: Q01DX009 (ip), vehicle: saline with Tween-80) was 7 of 10 and the survivor count (dose: 12.0 mg/kg/injection, schedule: Q01DX009 (ip), vehicle: saline with Tween-80) was 2 of 10.
For Cc1ccc(S(=O)(=O)NC(=S)S)cc1, the survivor count [1] was 10 of 10.
COC(=O)Nc1ccc(Cc2ccc(NC(=O)OC)cc2)cc1 was tested, and the T/C [2] was 128 % of control, the T/C [3] was 143 % of control and the survivor count [4] was 10 of 10 (2×). For the same compound, the survivor count [1] was 8 of 10.
NC(N)=NCCCC(NC(=O)c1ccccc1)C(=O)O (configuration not stated) was tested, and the T/C (dose: 160.0 mg/kg/injection, schedule: Q01DX009 (ip), vehicle: saline with Tween-80) was 133 % of control.
With C=CC(C)(C)n1cc(C2=C(O)C(=O)C(c3cn(C(C)(C)C=C)c4ccccc34)=C(O)C2=O)c2ccccc21 the survivor count (dose: 0.01 mg/kg/injection, schedule: Q01DX009 (ip), vehicle: DMSO) was 5 of 10, the survivor count (dose: 0.02 mg/kg/injection, schedule: Q01DX009 (ip), vehicle: DMSO) was 4 of 10 and the survivor count (dose: 0.04 mg/kg/injection, schedule: Q01DX009 (ip), vehicle: DMSO) was 3 of 10. For the same compound, the survivor count (dose: 0.08 mg/kg/injection, schedule: Q01DX009 (ip), vehicle: DMSO) was 3 of 10 and 10 of 10, the survivor count (dose: 0.16 mg/kg/injection, schedule: Q01DX009 (ip), vehicle: DMSO) was 9 of 10 and the survivor count (dose: 0.31 mg/kg/injection, schedule: Q01DX009 (ip), vehicle: DMSO) was 10 of 10. The survivor count (dose: 0.62 mg/kg/injection, schedule: Q01DX009 (ip), vehicle: DMSO) was 10 of 10, the survivor count (dose: 1.25 mg/kg/injection, schedule: Q01DX009 (ip), vehicle: DMSO) was 6 of 10 and 9 of 10 and the survivor count (dose: 2.5 mg/kg/injection, schedule: Q01DX009 (ip), vehicle: DMSO) was 8 of 10. The survivor count (dose: 5.0 mg/kg/injection, schedule: Q01DX009 (ip), vehicle: DMSO) was 5 of 10, the survivor count (dose: 10.0 mg/kg/injection, schedule: Q01DX009 (ip), vehicle: DMSO) was 5 of 10 and 9 of 10 and the survivor count (dose: 20.0 mg/kg/injection, schedule: Q01DX009 (ip), vehicle: DMSO) was 10 of 10. For the same compound, the survivor count (dose: 40.0 mg/kg/injection, schedule: Q01DX009 (ip), vehicle: DMSO) was 1 of 10 and the survivor count (dose: 80.0 mg/kg/injection, schedule: Q01DX009 (ip), vehicle: DMSO) was 0 of 10.
For O=c1n(CC2CO2)c(=O)n(CC2CO2)c(=O)n1CC1CO1 (configuration not stated), the T/C (dose: 6.25 mg/kg/injection, schedule: Q01DX009 (ip), vehicle: saline with Tween-80) was 138 % of control, the T/C (dose: 6.25 mg/kg/injection, schedule: Q01DX009 (ip), vehicle: saline) was 139 % of control and the T/C [5] was 141 and 147 % of control. For the same compound, the survivor count [2] was 10 of 10, the survivor count (dose: 50.0 mg/kg/injection, schedule: Q01DX009 (ip), vehicle: saline) was 10 of 10 and the survivor count (dose: 50.0 mg/kg/injection, schedule: Q01DX009 (ip), vehicle: suspension in saline) was 10 of 10. For the same compound, the survivor count [3] was 8 of 10 and 10 of 10, the survivor count (dose: 100.0 mg/kg/injection, schedule: Q01DX009 (ip), vehicle: saline) was 2 of 10 and 10 of 10 and the survivor count (dose: 100.0 mg/kg/injection, schedule: Q01DX009 (ip), vehicle: suspension in saline) was 0 of 10 and 8 of 10. For the same compound, the survivor count [4] was 0 of 10 and 6 of 10 and the survivor count (dose: 200.0 mg/kg/injection, schedule: Q01DX009 (ip), vehicle: suspension in saline) was 0 of 10 and 1 of 10.
For COc1cc(/C=C/[N+](=O)[O-])cc(Br)c1OC, the survivor count (dose: 12.5 mg/kg/injection, schedule: Q01DX009 (ip), vehicle: saline with Tween-80) was 10 of 10, the survivor count (dose: 25.0 mg/kg/injection, schedule: Q01DX009 (ip), vehicle: saline with Tween-80) was 10 of 10 and the survivor count [2] was 6 of 10. For the same compound, the survivor count [3] was 0 of 10.
In the case of N#Cc1ccc(NN=O)nc1, the T/C (dose: 6.25 mg/kg/injection, schedule: Q01DX009 (ip), vehicle: water) is reported as 130 % of control [9 of 10 alive], the T/C [5] is reported as 129 % of control and the T/C (dose: 12.5 mg/kg/injection, schedule: Q01DX009 (ip), vehicle: water) is reported as 140 % of control. The survivor count (dose: 25.0 mg/kg/injection, schedule: Q01DX009 (ip), vehicle: water) was 10 of 10 and the survivor count (dose: 50.0 mg/kg/injection, schedule: Q01DX009 (ip), vehicle: water) was 10 of 10.
C[C@H](N)C(=O)N[C@@H]1[C@H]2C(=C(O)C[C@@H](O)[C@@H]2O)C(=O)O[C@@H]1C was tested, and the T/C (dose: 600.0 mg/kg/injection, schedule: Q01DX009 (ip), vehicle: saline with Tween-80) was 125 % of control and the survivor count (dose: 2400.0 mg/kg/injection, schedule: Q01DX009 (ip), vehicle: saline with Tween-80) was 1 of 10.
